Measurements reported in the supplement of paper PMC8728848.
This is one part of the list.

How the values were obtained:
Experiment in all cases: glycan array binding signal (z-score within array); higher = stronger binding
Details in all cases: glycan notation: IUPAC condensed, linker removed
[1] = system: Fuc(a1-2)Gal(b1-4)GlcNAc(b1-6)GalNAc
Outline: (§1)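 The binding signal is a Z-score computed within each array and averaged over linkers. Arrays of the same protein sequence at different concentrations or buffers were also averaged together. Data originate from 3228 arrays in the Consortium for Functional Glycomics database, kept only where the protein sequence was available.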

[2] = system: Fuc(a1-2)Gal(b1-4)GlcNAc6S
Outline: as §1

Fuc(a1-2)Gal(b1-4)GlcNAc = system: Fuc(a1-2)Gal(b1-4)GlcNAc
Outline: as §1

Fuc(a1-2)Gal(b1-4)Glc = system: Fuc(a1-2)Gal(b1-4)Glc
Outline: as §1

[3] = system: Fuc(a1-2)Gal(b1-4)[Fuc(a1-3)]GlcNAc(b1-2)Man(a1-3)[Fuc(a1-2)Gal(b1-4)[Fuc(a1-3)]GlcNAc(b1-2)Man(a1-6)]Man(b1-4)GlcNAc(b1-4)[Fuc(a1-6)]GlcNAc
Outline: as §1

[4] = system: Fuc(a1-2)Gal(b1-4)[Fuc(a1-3)]GlcNAc(b1-2)[Fuc(a1-2)Gal(b1-4)[Fuc(a1-3)]GlcNAc(b1-4)]Man(a1-3)[Fuc(a1-2)Gal(b1-4)[Fuc(a1-3)]GlcNAc(b1-2)Man(a1-6)]Man(b1-4)GlcNAc(b1-4)GlcNAc
Outline: as §1

[5] = system: Fuc(a1-2)Gal(b1-4)[Fuc(a1-3)]GlcNAc(b1-3)Gal(b1-4)[Fuc(a1-3)]GlcNAc(b1-3)Gal(b1-4)[Fuc(a1-3)]GlcNAc
Outline: as §1

[6] = system: Fuc(a1-2)Gal(b1-4)[Fuc(a1-3)]GlcNAc(b1-3)Gal(b1-4)[Fuc(a1-3)]GlcNAc
Outline: as §1

[7] = system: Fuc(a1-2)Gal(b1-4)[Fuc(a1-3)]GlcNAc(b1-3)GalNAc
Outline: as §1

[8] = system: Fuc(a1-2)Gal(b1-4)[Fuc(a1-3)]GlcNAc(b1-3)[Neu5Ac(a2-6)Gal(b1-4)GlcNAc(b1-6)]Gal(b1-4)Glc
Outline: as §1

[9] = system: Fuc(a1-2)Gal(b1-4)[Fuc(a1-3)]GlcNAc
Outline: as §1

[10] = system: Fuc(a1-2)Gal3S(b1-4)GlcNAc
Outline: as §1

[11] = system: Fuc(a1-2)Gal6S(b1-3)GlcNAc6S
Outline: as §1

[12] = system: Fuc(a1-2)Gal6S(b1-3)GlcNAc
Outline: as §1

[13] = system: Fuc(a1-2)Gal6S(b1-4)Glc6S
Outline: as §1

Fuc(a1-2)Gal6S(b1-4)Glc = system: Fuc(a1-2)Gal6S(b1-4)Glc
Outline: as §1

Fuc(a1-2)Gal = system: Fuc(a1-2)Gal
Outline: as §1

[14] = system: Fuc(a1-2)[Gal(a1-3)]Gal(b1-3)GalNAc(b1-3)Gal(a1-4)Gal(b1-4)Glc
Outline: as §1

[15] = system: Fuc(a1-2)[Gal(a1-3)]Gal(b1-3)GalNAc
Outline: as §1

[16] = system: Fuc(a1-2)[Gal(a1-3)]Gal(b1-3)GlcNAc(b1-2)Man(a1-3)[Fuc(a1-2)[Gal(a1-3)]Gal(b1-3)GlcNAc(b1-2)Man(a1-6)]Man(b1-4)GlcNAc(b1-4)GlcNAc
Outline: as §1

[17] = system: Fuc(a1-2)[Gal(a1-3)]Gal(b1-3)GlcNAc(b1-2)Man(a1-3)[Fuc(a1-2)[Gal(a1-3)]Gal(b1-3)GlcNAc(b1-2)Man(a1-6)]Man(b1-4)GlcNAc(b1-4)[Fuc(a1-6)]GlcNAc
Outline: as §1

[18] = system: Fuc(a1-2)[Gal(a1-3)]Gal(b1-3)GlcNAc(b1-3)GalNAc
Outline: as §1

[19] = system: Fuc(a1-2)[Gal(a1-3)]Gal(b1-3)GlcNAc(b1-6)GalNAc
Outline: as §1

[20] = system: Fuc(a1-2)[Gal(a1-3)]Gal(b1-3)GlcNAc
Outline: as §1

[21] = system: Fuc(a1-2)[Gal(a1-3)]Gal(b1-4)GlcNAc(b1-2)Man(a1-3)[Fuc(a1-2)[Gal(a1-3)]Gal(b1-4)GlcNAc(b1-2)Man(a1-6)]Man(b1-4)GlcNAc(b1-4)GlcNAc
Outline: as §1

[22] = system: Fuc(a1-2)[Gal(a1-3)]Gal(b1-4)GlcNAc(b1-2)Man(a1-3)[Fuc(a1-2)[Gal(a1-3)]Gal(b1-4)GlcNAc(b1-2)Man(a1-6)]Man(b1-4)GlcNAc(b1-4)[Fuc(a1-6)]GlcNAc
Outline: as §1

[23] = system: Fuc(a1-2)[Gal(a1-3)]Gal(b1-4)GlcNAc(b1-2)Man
Outline: as §1

[24] = system: Fuc(a1-2)[Gal(a1-3)]Gal(b1-4)GlcNAc(b1-3)GalNAc
Outline: as §1

[25] = system: Fuc(a1-2)[Gal(a1-3)]Gal(b1-4)GlcNAc(b1-3)[Fuc(a1-2)[Gal(a1-3)]Gal(b1-4)GlcNAc(b1-6)]GalNAc
Outline: as §1

[26] = system: Fuc(a1-2)[Gal(a1-3)]Gal(b1-4)GlcNAc(b1-6)GalNAc
Outline: as §1

[27] = system: Fuc(a1-2)[Gal(a1-3)]Gal(b1-4)GlcNAc
Outline: as §1

[28] = system: Fuc(a1-2)[Gal(a1-3)]Gal(b1-4)Glc
Outline: as §1

Substance: MpAFP RI GFP (Marinomonas primoryensis)
- glycan array binding signal (z-score) [1]: 0.939
- glycan array binding signal (z-score) [2]: -0.006
- glycan array binding signal (z-score) (Fuc(a1-2)Gal(b1-4)GlcNAc): -0.23
- glycan array binding signal (z-score) (Fuc(a1-2)Gal(b1-4)Glc): -0.404
- glycan array binding signal (z-score) [3]: 1.18
- glycan array binding signal (z-score) [4]: 1.36
- glycan array binding signal (z-score) [5]: -0.005
- glycan array binding signal (z-score) [6]: -0.013
- glycan array binding signal (z-score) [7]: 0.415
- glycan array binding signal (z-score) [8]: -0.494
- glycan array binding signal (z-score) [9]: 0.405
- glycan array binding signal (z-score) [10]: -0.61
- glycan array binding signal (z-score) [11]: 1.15
- glycan array binding signal (z-score) [12]: -0.023
- glycan array binding signal (z-score) [13]: -0.375
- glycan array binding signal (z-score) (Fuc(a1-2)Gal6S(b1-4)Glc): -0.628
- glycan array binding signal (z-score) (Fuc(a1-2)Gal): 0.111
- glycan array binding signal (z-score) [14]: -0.086
- glycan array binding signal (z-score) [15]: -0.433
- glycan array binding signal (z-score) [16]: -0.254
- glycan array binding signal (z-score) [17]: -0.096
- glycan array binding signal (z-score) [18]: -0.43
- glycan array binding signal (z-score) [19]: -0.027
- glycan array binding signal (z-score) [20]: -0.449
- glycan array binding signal (z-score) [21]: 1.16
- glycan array binding signal (z-score) [22]: -0.246
- glycan array binding signal (z-score) [23]: -0.289
- glycan array binding signal (z-score) [24]: -0.744
- glycan array binding signal (z-score) [25]: -0.23
- glycan array binding signal (z-score) [26]: -0.127
- glycan array binding signal (z-score) [27]: -0.575
- glycan array binding signal (z-score) [28]: 0.628
